Article PMC7198626
No constants are given. Whether binding was seen depends on the method and setting. Some binding calls cover weakened binding; strength is not graded here.

Molecular target: sarcoplasmic/endoplasmic reticulum calcium-ATPase 2a (SERCA2a), endogenous in mouse heart (mouse (endogenous in mouse heart)), O55143
Assay: western blot of high molecular weight (oligomeric) species; heart lysates of Speg3A-knockin mice and WT littermates (7-month-old); oligomerization of endogenous SERCA2a by western blot, quantified
Details: remark: other sources report otherwise

- binding: binds
B1: sarcoplasmic/endoplasmic reticulum calcium-ATPase 2a (SERCA2a), endogenous in mouse heart, O55143-2 1-998 (enzyme)
chain: MENAHTKTVEEVLGHFGVNESTGLSLEQVKKLKERWGSNELPAEEGKTLLELVIEQFEDLLVRILLLAACISFVLAWFEEGEETITAFVEPFVILLILVANAIVGVWQERNAENAIEALKEYEPEMGKVYRQDRKSVQRIKAKDIVPGDIVEIAVGDKVPADIRLTSIKSTTLRVDQSILTGESVSVIKHTDPVPDPRAVNQDKKNMLFSGTNIAAGKAMGVVVATGVNTEIGKIRDEMVATEQERTPLQQKLDEFGEQLSKVISLICIAVWIINIGHFNDPVHGGSWIRGAIYYFKIAVALAVAAIPEGLPAVITTCLALGTRRMAKKNAIVRSLPSVETLGCTSVICSDKTGTLTTNQMSVCRMFILDKVEGDTCSLNEFSITGSTYAPIGEVQKDDKPVKCHQYDGLVELATICALCNDSALDYNEAKGVYEKVGEATETALTCLVEKMNVFDTELKGLSKIERANACNSVIKQLMKKEFTLEFSRDRKSMSVYCTPNKPSRTSMSKMFVKGAPEGVIDRCTHIRVGSTKVPMTPGVKQKIMSVIREWGSGSDTLRCLALATHDNPLKREEMHLEDSANFIKYETNLTFVGCVGMLDPPRIEVASSVKLCRQAGIRVIMITGDNKGTAVAICRRIGIFGQDEDVTSKAFTGREFDELSPSAQRDACLNARCFARVEPSHKSKIVEFLQSFDEITAMTGDGVNDAPALKKSEIGIAMGSGTAVAKTASEMVLADDNFSTIVAAVEEGRAIYNNMKQFIRYLISSNVGEVVCIFLTAALGFPEALIPVQLLWVNLVTDGLPATALGFNPPDLDIMNKPPRNPKEPLISGWLFFRYLAIGCYVGAATVGAAAWWFIAADGGPRVSFYQLSHFLQCKEDNPDFDGVDCAIFESPYPMTMALSVLVTIEMCNALNSLSENQSLLRMPPWENIWLVGSICLSMSLHFLILYVEPLPLIFQITPLNLTQWLMVLKISLPVILMDETLKFVARNYLEQPAILE
